Assay results from PubChem BioAssay AID540256 (National Center for Advancing Translational Sciences (NCATS), 2011).
About 3,700 (1.2%) of roughly 300,000 compounds were called active. Inconclusive means that the source gave no clear call. Such entries were picked first, then a sample of the others. The call rests on the fitted dose curve; tested in HEK293 cells. Potencies of inconclusive entries are doubtful fits and often do not repeat.

Assay: qHTS for Inhibitors of binding or entry into cells for Lassa Virus; further: nearly all actives have a fitted effect of over 50% in size
Conditions: Lassa virus pseudotype entry inhibition, cell reporter; series mostly up to 37.9 µM
Potency means the concentration at half of the fitted maximal effect.

| SMILES | Potency |
| --- | --- |
| CCSc1nnc(NC(=O)c2ccc3ccccc3n2)s1 | inconclusive: 35.5 µM [inhibitor, single point] |
| COc1cccc(OC)c1C(=O)Nc1sc2c(c1C#N)CCC2 | inconclusive: 1.26 µM [inhibitor, full curve, poor fit] |
| COC(=O)COc1ccc(C2C(C(=O)OC)=C(C)NC3=C2C(=O)c2ccccc23)cc1OC (configuration not stated) | inactive |
| CCOc1ccc(-n2c(SCC(=O)N3CCC(C(=O)O)CC3)nc3ccccc3c2=O)cc1 | inconclusive: 29.1 µM [activator, single point] |
| Cc1ccc(C)c(N=Cc2c(O)c3ccccc3oc2=O)c1 | inactive |
| O=C1Nc2ccccc2C1=C1CCc2cc(O)ccc21 | inconclusive: 39.7 µM [inhibitor, single point] |
| Clc1ccc(-c2nnc(COc3ncnc4ccccc34)o2)cc1 | inconclusive: 12.6 µM [activator, partial curve, poor fit] |
| CC(C)C(=O)N1CCN(c2ccccc2NC(=S)NC(=O)c2cccs2)CC1 | inconclusive: 3.16 µM [inhibitor, full curve, poor fit] |
| CCOc1ccc(CNC(=O)C2CC(=O)N(C3CCCC3)C2)cc1OC (configuration not stated) | inconclusive: 0.58 µM [activator, full curve] |
| O=S1CCN(Cc2ccc(-c3ccc4ncnc(Nc5ccc(OCc6cccc(F)c6)c(Cl)c5)c4c3)o2)CC1 | inconclusive: 11.2 µM [inhibitor, single point] |
| CC(C)(C)c1nn2cnnc2n(/N=C/c2cccc3ccccc23)c1=O | inactive |
| O=C(NCCOc1ccccc1)C1CCC(=O)N(C2CCCCCC2)C1 (configuration not stated) | inconclusive: 0.891 µM [activator, single point] |
| Cc1ccc(CN2CCN(Cc3cnc(C)[nH]3)CC2CCO)cc1 (configuration not stated) | inactive |
| Cn1cc([N+](=O)[O-])c(C(=O)NCc2ccco2)n1 | inconclusive: 1 µM [inhibitor, partial curve, poor fit] |
| CC(C)NC(=O)CCCOc1ccc(Cl)cc1Cl | inactive |
| O=C(c1ccc2c3c(cccc13)CC2)C1CCCN(Cc2ncc[nH]2)C1 (configuration not stated) | inconclusive: 1.26 µM [inhibitor, partial curve, poor fit] |
| O=C(Nc1cccc(C(F)(F)F)c1)c1cc2c(s1)-c1ccccc1OC2 | inconclusive: 0.708 µM [inhibitor, single point] |
| COc1ccc(/C=N/NC(=O)c2cccc([N+](=O)[O-])c2)cc1OC(=O)c1ccccc1 | inconclusive: 10.3 µM [inhibitor, partial curve, poor fit] |
| O=C(CSc1nnnn1C1CCCCC1)Nc1ccc(F)cc1 | inconclusive: 3.55 µM [inhibitor, partial curve, poor fit] |
| O=C(NCCc1c[nH]c2ccccc12)c1ccc(S(=O)(=O)NCc2ccco2)cc1 | inactive |
| COc1ccc(/C=C/C(=O)OCC(=O)N2CC(=O)Nc3ccccc32)cc1S(=O)(=O)N1CCOCC1 | inconclusive: 7.3 µM [activator, partial curve, poor fit] |
| COc1ccc(CNC(=O)c2cnc3sc(N4CCC(C)CC4)nn3c2=O)c(OC)c1 | inactive |
| CCc1ccc(CN(C(=O)c2ccco2)C2CCS(=O)(=O)C2)cc1 (configuration not stated) | inconclusive: 3.55 µM [inhibitor, partial curve, poor fit] |

| SMILES | Potency |
| --- | --- |
| COc1cccc(NC(=O)COc2coc(CN3CCN(c4ccccc4)CC3)cc2=O)c1 | inactive |
| Fc1ccc(Br)cc1C1C=C(c2ccc(Br)s2)Nc2ncnn21 (configuration not stated) | inconclusive: 0.224 µM [inhibitor, full curve, poor fit] |
| c1ccc(-c2nc[nH]c2-c2ccccc2)cc1 | inconclusive: 29.1 µM [inhibitor, single point] |
| Cc1ccc(N2C(=O)CC(c3ccccc3F)C3=C2COC3=O)cc1Cl (configuration not stated) | inactive |
| CCN(CCNC(=O)C1CCN(Cc2nc(-c3ccc(Cl)cc3)oc2C)CC1)c1ccccc1 | inconclusive: 35.5 µM [inhibitor, single point] |
| COc1ccc(NC(=O)COc2cc(C)cc(C)c2)cc1S(=O)(=O)N1CCCCC1 | inconclusive: 3.16 µM [inhibitor, full curve] |
| CN(C)C=NC(=O)c1cc(C(=O)c2ccc(C(C)(C)C)cc2)c[nH]1 | active: 3.16 µM |
| Cc1ccc2[nH]c3c(c2c1)CCCC3NC(=O)CCl (configuration not stated) | active: 8.91 µM |
| CC(SCc1ccccc1)C(=O)NC1CCCC1 (configuration not stated) | inconclusive: 20 µM [activator, partial curve, poor fit] |
| COc1cc(OC)cc(C(=O)Nc2cc3c(cc2N2CCCCC2)n(C)c(=O)n3C)c1 | inactive |
| CCN(CC1CCCN(CCc2cccc(OC)c2)C1)C(=O)c1ccc(COC)o1 (configuration not stated) | inconclusive: 1.12 µM [activator, full curve, poor fit] |
| O=C(COC(=O)c1c(Cl)ccc(Cl)c1Cl)NC(=O)NCc1ccccc1 | inconclusive: 9.2 µM [inhibitor, partial curve] |
| O=C(Nc1ccc2nc(-c3cccs3)c(-c3cccs3)nc2c1)N1CCOCC1 | inconclusive: 18.3 µM [inhibitor, single point] |
| CCCCOc1ccc(-c2cnc3ccccc3n2)cc1 | inconclusive: 5.01 µM [inhibitor, single point] |
| COc1ccccc1CC(NC(C)=O)C(=O)NC1CCN(S(=O)(=O)c2ccc(NC(C)=O)cc2)CC1 (configuration not stated) | inactive |
| Cc1ccc(-c2nc3ccccc3[nH]2)cc1NC(=O)COc1ccccc1[N+](=O)[O-] | inconclusive: 12.6 µM [inhibitor, partial curve, poor fit] |
| CC(C)CN(C(=O)c1cc(Cl)nc2ccccc12)C1CCS(=O)(=O)C1 (configuration not stated) | inconclusive: 0.112 µM [activator, full curve, poor fit] |
| O=C(c1cnn(-c2cccc(F)c2)c1-n1cccc1)N1CCN(c2ccccc2F)CC1 | inactive |
| COc1ccccc1NC(=O)NCCCN1CCN(c2ccc(F)cc2)CC1 | inconclusive: 3.98 µM [inhibitor, partial curve, poor fit] |
| O=C(CN1CCCCC1)N/N=C/c1ccccc1Br | inconclusive: 35.5 µM [activator, single point] |
| COc1ccc([N+](=O)[O-])cc1NC(=O)Cc1ccccc1Cl | inactive |
| COc1ccc(C2C=C(c3ccc(F)cc3)Nc3nc(-c4ccc(Cl)cc4)nn32)cc1 (configuration not stated) | inconclusive: 20 µM [inhibitor, single point] |
| Cc1cc(C(=O)CS(=O)(=O)c2ccc(F)cc2)cc(C)c1OC(=O)N(C)C | inconclusive: 35.5 µM [inhibitor, single point] |

In another format: four of the compounds above.
COc1ccc(NC(=O)COc2cc(C)cc(C)c2)cc1S(=O)(=O)N1CCCCC1
  Potency: inconclusive: 3.16 µM [inhibitor, full curve]
CN(C)C=NC(=O)c1cc(C(=O)c2ccc(C(C)(C)C)cc2)c[nH]1
  Potency: active: 3.16 µM
CCN(CC1CCCN(CCc2cccc(OC)c2)C1)C(=O)c1ccc(COC)o1 (configuration not stated)
  Potency: inconclusive: 1.12 µM [activator, full curve, poor fit]
COc1ccccc1CC(NC(C)=O)C(=O)NC1CCN(S(=O)(=O)c2ccc(NC(C)=O)cc2)CC1 (configuration not stated)
  Potency: inactive

The listing continues:

| SMILES | Potency |
| --- | --- |
| COc1ccc(NC(=O)c2ccc3c(c2)N(Cc2cccc(Cl)c2)C(=O)c2ccccc2S3=O)cc1Cl (configuration not stated) | inconclusive: 0.562 µM [activator, full curve, poor fit] |
| O=C(Nc1cccc(O)c1)c1ccc(NC(=O)C2CCCO2)cc1 (configuration not stated) | inconclusive: 35.5 µM [inhibitor, single point] |
| CCCOc1ccc(/C=N/O)cc1 | inconclusive: 1.83 µM [activator, partial curve, poor fit] |
| COc1cccc(Cc2nc3ccccc3nc2SCC(=O)NCCc2ccccc2)c1 | inconclusive: 35.5 µM [inhibitor, single point] |
| COc1cc(OC)c(NC(=O)c2ccoc2C)cc1Cl | inactive |
| COc1ccc2nc(SCC(=O)Nc3cc(C)on3)c(C#N)cc2c1 | inconclusive: 7.08 µM [inhibitor, full curve, poor fit] |
| N#CC1=C(N)OC2=C(CCc3ccccc32)C1c1ccccc1 (configuration not stated) | inconclusive: 2.91 µM [inhibitor, partial curve] |
| CCc1ccc(NC(=O)CCn2c(-c3ccc(OC)cc3)cc(C(C)=O)c2C)cc1 | inactive |
| CCCC(=O)N(C1CC(C)C(C#N)(C#N)C1(C#N)C#N)N(C)C (configuration not stated) | inconclusive: 35.5 µM [inhibitor, single point] |
| O=S(=O)(c1ccccc1)N1CCCCC1CCc1ccccc1 (configuration not stated) | inconclusive: 35.5 µM [inhibitor, single point] |
| N=c1sccn1CC(=O)Nc1cccc(Oc2ccccc2)c1 | inconclusive: 14.1 µM [activator, single point] |
| O=C(O)C1CC(=O)N(CCc2c[nH]c3ccccc23)C1 (configuration not stated) | inactive |
| Cn1c(SCC(=O)N2CCOCC2)ncc(C(=O)Nc2ccccc2)c1=O | inconclusive: 8.91 µM [activator, single point] |
| O=S(=O)(c1ccc2c(c1)CCCN2)N1CCCC2CCCCC21 (configuration not stated) | inconclusive: 15.8 µM [inhibitor, partial curve, poor fit] |
| CC(C)Cc1cc(C(=O)N2CCCC(CCC(=O)N(C)CCc3ccccn3)C2)no1 (configuration not stated) | inconclusive: 8.2 µM [inhibitor, partial curve] |
| O/N=C1/CCSc2ccccc21 | inactive |
| O=C(Cc1ccsc1)N1CCc2c([nH]c3ccccc23)C1c1ccccn1 (configuration not stated) | inconclusive: 14.1 µM [inhibitor, single point] |
| CC1=NN(/C(=N\c2nnc(C)s2)Nc2ccccc2)[C@H](c2cccc3ccccc23)S1 | inconclusive: 29.1 µM [inhibitor, single point] |
| CCc1ccc(NC(=S)NC(=O)c2c(-c3ccccc3Cl)noc2C)cc1 | inactive |
| CCCN1CCC(c2ccc(Nc3nc(Nc4cc(F)ccc4C(N)=O)c4cc[nH]c4n3)c(OC)c2)CC1 | inconclusive: 25 µM [inhibitor, single point] |
| CC(=O)c1ccc(NS(=O)(=O)c2ccc(C)cc2)cc1 | inactive |
